The values that follow come from patent US20250057930A1, “ANAPLASTIC LYMPHOMA KINASE (ALK) CANCER VACCINES AND METHODS OF USE THEREOF” (The Children's Medical Center Corporation, priority 2022, published 2025).

In the data set the test system is NCI-H2228 cells. Kind of data set: LC-DIAMS of pan-HLA immunoprecipitations of NCI-H2228. Further details: species or system human. To be noted: MHC-I eluates from NCI-H2228 cells.
Regarding IINQVYRRK, the LC-DIAMS result is given as “not detected”. VIINQVYRRK: the LC-DIAMS result is “not detected”. As to DVIINQVYRRK, the LC-DIAMS result is “not detected”. As for RPRPSQPSSL, the LC-DIAMS entry was “identified”.
